The list shows a part of the results. The main result of the screen is listed elsewhere. These columns were measured beside it and carry no call. The list favours compounds with an active or inconclusive main result. Potencies come from curve fits of mixed quality, noted in brackets.
Test: qHTS Assay for Lipid Storage Modulators in Drosophila S3 Cells;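 as to cell number change: cells counted by Cell Tracker Red CMTPX staining in the red channel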
Details: BODIPY lipid droplet fluorescence, 18-24 h; for cell number change: measured here: cell count max response, cells fed with added oleic acid
How it was run: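 Laser-scanning cytometry quantifies lipid droplet accumulation (500–530 nm total intensity; droplet/cell object ratio) in oleic acid-fed (400 uM added) Drosophila S3 cells treated with a concentration series. 20 uM Triacsin C defined 100% inhibition.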

[1] = measured here: cell number channel AC50, cells fed with added oleic acid
[2] = measured here: lipid fluorescence (Fed channel) AC50, cells fed with added oleic acid

SMILES	cell number change	AC50 [1]	AC50 [2]
Cn1c(=O)c2c3c(sc2n2c(SCC(N)=O)nnc12)CC(C(C)(C)C)CC3 (stereo not given)	-39.7%	20.6 µM [falling, single point]	
COc1ccc(C2=CC(=O)C[C@H](c3ccc4c(c3)OCO4)C2)cc1	-8.1%		
CC(C)(C)C(=O)N1CCN(c2ncccc2C(F)(F)F)CC1	31.9%		8.2 µM [rising, partial curve, poor fit]
Cn1c(-c2ccccc2)cnc1SCc1nc2ccccc2c(=O)[nH]1		2.59 µM [rising, partial curve]	1.16 µM [rising, partial curve]
CCOc1ccc(CN(C)CC(=O)Nc2cc(OC)c([N+](=O)[O-])cc2C)cc1	-0.725%	0.13 µM [rising, full curve, poor fit]	0.146 µM [rising, full curve, poor fit]
O=C(CNC(=O)C(c1ccccc1)c1ccccc1)OCc1ccccc1	-25.9%		1.84 µM [falling, full curve, poor fit]
CCC1CCCCN1C(=O)CSc1nnc(-c2ccc(Cl)s2)o1 (stereo not given)	-24.2%		
O=C(NCc1ccc2c(c1)OCO2)c1c(F)c(F)c(F)c(F)c1F	-5.75%		5.8 µM [falling, single point]
O=C(C1CCN(S(=O)(=O)c2cccnc2)CC1)N1CCN(c2ccc(Cl)cc2)CC1	-35.8%	0.13 µM [falling, full curve, poor fit]	6.51 µM [falling, single point]
Cc1ccc2nc(SCC(=O)c3ccc(Cl)cc3)nc(=O)n2c1	-11.5%		
Cc1ccc(CNC(=O)CCSCCC(=O)NCc2ccc(C)cc2)cc1	-46.2%	18.4 µM [falling, single point]	
CCc1sc(N(C(=O)Cc2ccccc2)c2ccc(F)cc2)nc1-c1ccccc1	13.3%		6.51 µM [rising, single point]
CCN(CC(=O)NC1CCS(=O)(=O)C1)C(=O)c1cc(OC)c(OC)c(OC)c1 (stereo not given)	-33.1%	0.82 µM [falling, full curve, poor fit]	0.116 µM [falling, full curve]
CCOc1ccccc1NC(=O)COc1ccc(S(=O)(=O)N2CCCC2)cc1	53.9%		5.62 µM [rising, single point]
CCOC(=O)c1c(C)[nH]c(C(=O)COC(=O)CNC(=O)C2CCCCC2)c1C	21.5%		16.4 µM [rising, partial curve]
COC(=O)CP(=O)(c1ccccc1)c1ccccc1	-64.9%	29.1 µM [falling, single point]	1.03 µM [falling, partial curve]
Cc1nn(Cc2ccccc2Cl)c(C)c1C(=O)N1CCN(c2ccccc2)CC1	-3.95%		3.26 µM [rising, partial curve]
CC(/C=N/NC(=O)c1nnn(-c2nonc2N)c1C(C)C)=C\c1ccco1	-15.7%		
CCC(C)(C)NC(=O)CN(Cc1ccco1)C(=O)CCC(=O)Nc1nccs1	-6.67%	0.82 µM [rising, single point]	
Cc1ccc(-n2c(SCC(N)=O)nc3c([nH]c4ccccc43)c2=O)cc1		2.31 µM [rising, partial curve]	

SMILES	cell number change	AC50 [1]	AC50 [2]
Cc1ccc(Nc2nc(N3CCOCC3)c3ccccc3n2)cc1	-52%	29.1 µM [falling, single point]	0.58 µM [rising, single point]
O=C(CNCc1ccco1)Nc1cccc(S(=O)(=O)N2CCCCC2)c1	22.9%		1.3 µM [rising, full curve, poor fit]
CCC(C)NCCOc1cccc(Br)c1 (stereo not given)		0.103 µM [falling, full curve, poor fit]	
O=C(N1CCOCC1)C12CCC3CC(CC(C3)C1)C2	-25.2%		25.9 µM [falling, partial curve, poor fit]
Cc1cccc2cc3c(nc12)-c1ccccc1C3=O	-33.5%	29.1 µM [falling, single point]	25.9 µM [falling, partial curve]
CC(C)N(CC(N)=O)c1ccc(S(=O)(=O)N2CCCC2)cn1	0.995%		
Cc1ccc(S(=O)(=O)NCC(=O)OCC(=O)Nc2ccc3c(c2)OCCO3)cc1	9.78%	5.17 µM [falling, single point]	3.26 µM [falling, single point]
Cc1cccc(-n2ncc3c2CCCC3NC(=O)CCc2ccncc2)c1C (stereo not given)	-43.6%	20.6 µM [falling, single point]	29.1 µM [falling, single point]
Cc1oc(=O)c(NC(=O)c2ccc(Cl)cc2)cc1C(=O)c1ccccc1	-58.6%	23.1 µM [falling, single point]	18.4 µM [falling, partial curve]
CN1CCCN(Cc2ccccc2C(F)(F)F)CC1	22%		9.2 µM [falling, partial curve]
COC(=O)C1=C(C)Nc2ncnn2C1c1ccc(C)o1 (stereo not given)	9.2%		
O=S(=O)(c1ccc(NC(=S)N/N=C/c2ccc(N3CCOCC3)cc2)cc1)N1CCOCC1	-60.5%	32.6 µM [falling, partial curve]	0.00411 µM [falling, full curve, poor fit]
CCCc1nnc(NC(=O)CNc2ccc(F)cc2)s1	6.94%		4.61 µM [rising, full curve]
C=CCNC(=O)CN1N=C(c2ccc(C)cc2)CCC1=O			6.51 µM [rising, single point]
Cc1ccn2cc(C(=O)Nc3cccc(C(=O)NC4CC4)c3)nc2c1	45.5%	0.231 µM [rising, full curve]	
CC(=O)Nc1ccc(Oc2cc(NC(C)=O)cc([N+](=O)[O-])c2)cc1	18.4%		23.1 µM [rising, single point]
Cc1ccc(Nc2nc(N)nc(-c3oc4ccccc4c3C)n2)cc1	-40.6%	3.26 µM [falling, full curve]	16.4 µM [falling, single point]
Cc1ccc(N2C(=O)Nc3ccc(Br)cc3C2(O)C(=O)NCCCN(C)C)cc1C (stereo not given)			29.1 µM [falling, single point]
C/C(CC(=O)Nc1cccc(Br)c1)=N\NC(=O)c1ccc(O)cc1O	-16.9%		7.31 µM [rising, partial curve]
O=S1(=O)CCC(NC(=S)NC2CCS(=O)(=O)C2)C1 (stereo not given)	6.72%		13 µM [rising, partial curve]

SMILES	cell number change	AC50 [1]	AC50 [2]
O=[N+]([O-])c1ccc(/C=[N+](\[O-])[C@@H]2CCCC[C@@H]2/[N+]([O-])=C/c2ccc([N+](=O)[O-])o2)o1	-22.3%		7.31 µM [falling, partial curve, poor fit]
O=C(NC(=S)NNC(=O)[C@H]1C[C@@H]1c1ccccc1)c1ccc(F)cc1	-19.1%		29.1 µM [falling, single point]
O=C(CN1CCN(C(=O)c2cccs2)CC1)NC1CCCCC1	0.0646%		0.731 µM [rising, single point]
Cc1cccn2cc(CCNC(=O)c3ccc(Br)o3)nc12			6.51 µM [rising, single point]
O=C(c1cc(-n2cnnc2)ccc1Cl)N1CCN(c2nc(-c3ccccc3)cs2)CC1	-47.8%	25.9 µM [falling, single point]	25.9 µM [falling, single point]
CC(C)CNC(=S)NNC(=O)CC(C)O (stereo not given)	16.5%		
CC(=O)Nc1cc(C(=O)N2CCc3ccccc3C2)ccc1Sc1ccc(C)cc1	20.3%		2.31 µM [rising, partial curve, poor fit]
O=C(CN(C(=O)c1csnn1)c1ccc(F)cc1)NCCc1ccccc1	-15.4%		
O=C1C(C=NCCCN2CCOCC2)=C(O)c2ccccc21	3.65%		
COCCC(=O)N1CCC(C(=O)Nc2ccc(Oc3ccccc3)nc2)CC1	19.1%	0.058 µM [rising, full curve, poor fit]	
CCc1c(C)nc(N)n2c(SCC(=O)N3CCCC(C)C3)nnc12 (stereo not given)	3.05%		0.092 µM [falling, full curve, poor fit]
Cc1cc(NC(=O)c2ccc(S(=O)(=O)N3CCOCC3)cc2)no1		0.164 µM [falling, partial curve]	0.13 µM [falling, full curve]
COc1ccc(CCNC(=O)C2CC(=O)N(C3CCCCCCC3)C2)cc1OC (stereo not given)	15.6%		1.46 µM [rising, full curve, poor fit]
CN(C)C(=O)CSc1n[nH]c(=O)n1CCc1ccccc1	-4.5%		
COc1ccc(OCc2cc(C(=O)N3C[C@H]4CC[C@H]3C4)no2)c(Cl)c1	-27.6%		23.1 µM [falling, single point]
CC1(C)CC[C@]2(C(=O)O)CC[C@]3(C)C(=CC[C@@H]4[C@@]5(C)CC[C@H](O)C(C)(C)[C@@H]5CC[C@]43C)[C@@H]2C1	0.982%		4.11 µM [falling, single point]
CN1CCN(C(=O)c2ccc(C(F)(F)F)cc2)CC1	-42.8%	35.5 µM [falling, single point]	
CCc1cc2cc(C)cc(C)c2nc1SCC(=O)N1CCCC1	29.7%		2.06 µM [rising, partial curve, poor fit]
COc1ccc(CN(C)C(=O)c2ccc3c(=O)n4c(nc3c2)CCC4)cc1	-16.2%		6.51 µM [rising, single point]

17 entries from above in another layout.
SMILES | cell number change | AC50 [1] | AC50 [2]
Cc1ccc(-n2c(SCC(N)=O)nc3c([nH]c4ccccc43)c2=O)cc1 |  | 2.31 µM [rising, partial curve] | 
Cc1ccc(Nc2nc(N3CCOCC3)c3ccccc3n2)cc1 | -52% | 29.1 µM [falling, single point] | 0.58 µM [rising, single point]
O=C(CNCc1ccco1)Nc1cccc(S(=O)(=O)N2CCCCC2)c1 | 22.9% |  | 1.3 µM [rising, full curve, poor fit]
CCC(C)NCCOc1cccc(Br)c1 (stereo not given) |  | 0.103 µM [falling, full curve, poor fit] | 
O=C(N1CCOCC1)C12CCC3CC(CC(C3)C1)C2 | -25.2% |  | 25.9 µM [falling, partial curve, poor fit]
Cc1cccc2cc3c(nc12)-c1ccccc1C3=O | -33.5% | 29.1 µM [falling, single point] | 25.9 µM [falling, partial curve]
CC(C)N(CC(N)=O)c1ccc(S(=O)(=O)N2CCCC2)cn1 | 0.995% |  | 
Cc1ccc(S(=O)(=O)NCC(=O)OCC(=O)Nc2ccc3c(c2)OCCO3)cc1 | 9.78% | 5.17 µM [falling, single point] | 3.26 µM [falling, single point]
Cc1cccc(-n2ncc3c2CCCC3NC(=O)CCc2ccncc2)c1C (stereo not given) | -43.6% | 20.6 µM [falling, single point] | 29.1 µM [falling, single point]
Cc1oc(=O)c(NC(=O)c2ccc(Cl)cc2)cc1C(=O)c1ccccc1 | -58.6% | 23.1 µM [falling, single point] | 18.4 µM [falling, partial curve]
CN1CCCN(Cc2ccccc2C(F)(F)F)CC1 | 22% |  | 9.2 µM [falling, partial curve]
COC(=O)C1=C(C)Nc2ncnn2C1c1ccc(C)o1 (stereo not given) | 9.2% |  | 
O=S(=O)(c1ccc(NC(=S)N/N=C/c2ccc(N3CCOCC3)cc2)cc1)N1CCOCC1 | -60.5% | 32.6 µM [falling, partial curve] | 0.00411 µM [falling, full curve, poor fit]
CCCc1nnc(NC(=O)CNc2ccc(F)cc2)s1 | 6.94% |  | 4.61 µM [rising, full curve]
C=CCNC(=O)CN1N=C(c2ccc(C)cc2)CCC1=O |  |  | 6.51 µM [rising, single point]
Cc1ccn2cc(C(=O)Nc3cccc(C(=O)NC4CC4)c3)nc2c1 | 45.5% | 0.231 µM [rising, full curve] | 
CC(=O)Nc1ccc(Oc2cc(NC(C)=O)cc([N+](=O)[O-])c2)cc1 | 18.4% |  | 23.1 µM [rising, single point]
